# Test results from patent publication US5279956A, “Activated protein C polypeptides and anti-peptide antibodies, diagnostic methods and systems for inhibiting activated protein C” (The Scripps Research Institute, priority 1991, dated 1994).
# By UniProt entry, the sequences of proteins in these tests, tags left out. Residues count along the entry.
# UniProt P04070, 43-197: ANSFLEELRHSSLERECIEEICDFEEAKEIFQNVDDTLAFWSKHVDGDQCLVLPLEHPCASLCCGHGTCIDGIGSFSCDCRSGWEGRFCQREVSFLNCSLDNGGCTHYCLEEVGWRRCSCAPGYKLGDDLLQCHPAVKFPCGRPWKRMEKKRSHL
# UniProt P04070, 212-461: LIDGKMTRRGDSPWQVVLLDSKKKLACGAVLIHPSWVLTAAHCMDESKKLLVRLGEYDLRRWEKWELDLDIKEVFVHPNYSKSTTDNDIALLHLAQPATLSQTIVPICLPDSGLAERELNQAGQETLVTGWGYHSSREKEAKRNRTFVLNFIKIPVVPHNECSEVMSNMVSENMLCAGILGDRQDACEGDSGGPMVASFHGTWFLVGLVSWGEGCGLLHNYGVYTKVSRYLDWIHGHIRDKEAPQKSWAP
# At least one peptide structure holds a part that was inferred or is arguable (an end, a ring closure or a residue). No end group written: not given here.
# Biological target: T1, APC (Homo sapiens, UniProt P04070)
# T1 construct: begins at amino acid residue position 158 and ends at 419; The light chain is 155 amino acid residues in length; tissue Factor IX concentrate from Immuno AG, Vienna; thrombin from Enzyme Research Laboratories
# Assay: Inhibition of APC by recombinant mutant (Arg358)-α1-antitrypsin, time course
# Assay type: biochemical
# Conditions: 100 μM peptide; 18 nM APC, 100 nM α1-AT
# Protocol: Since the number of amino acid residues involved in protease-protease inhibitor complexes is likely to be higher than the number of residues of APC involved in the cleavage of a small chromogenic substrate such as S-2366, the effect of peptide-(390-404) and peptide-(317-331) on the time course of inhibition of APC by a larger pseudosubstrate, recombinant mutant (Arg^358)-α1 -antitrypsin (α1 -AT) was evaluated. […] Heeb et al., J. Biol. Chem. 265:2365-2369 (1990).
# Kinetic studies of inhibition of APC were performed with the higher affinity mutant α1 -AT pseudo-substrate. […] The change in absorbance was measured over time as described in the amidolytic assay. […]
# Since the number of amino acid residues involved in protease-protease inhibitor complexes is likely to be higher than the number of residues of APC involved in the cleavage of a small chromogenic substrate such as S-2366, the effect of anti-(390-404) antibody on the time course of inhibition of APC by a larger pseudo-substrate, such as recombinant mutant (Arg^358)-α1 -AT was evaluated. […] The change in absorbance was measured over time as described in the amidolytic assay. […]
substance,measurement,value
"YGVYTKVSRYLDWIH-NH2 [peptide-(390-404), YGVYTKVSRYLDWIH]",effect on time course of inhibition of APC by recombinant (Arg358)α1-AT,did not have any significant effect
